Consider one substance from publication PMC13071878, “Yeast Display Technology Enables Rapid Discovery of Low-Nanomolar Macrocyclic Peptide Inhibitors of Human Angiotensin-Converting Enzyme 2” (Journal of Medicinal Chemistry, 2026).

Amino acid sequences for entries named in this document (tags omitted). Residues count along the entry.
UniProt Q9BYF1, residues 19-615: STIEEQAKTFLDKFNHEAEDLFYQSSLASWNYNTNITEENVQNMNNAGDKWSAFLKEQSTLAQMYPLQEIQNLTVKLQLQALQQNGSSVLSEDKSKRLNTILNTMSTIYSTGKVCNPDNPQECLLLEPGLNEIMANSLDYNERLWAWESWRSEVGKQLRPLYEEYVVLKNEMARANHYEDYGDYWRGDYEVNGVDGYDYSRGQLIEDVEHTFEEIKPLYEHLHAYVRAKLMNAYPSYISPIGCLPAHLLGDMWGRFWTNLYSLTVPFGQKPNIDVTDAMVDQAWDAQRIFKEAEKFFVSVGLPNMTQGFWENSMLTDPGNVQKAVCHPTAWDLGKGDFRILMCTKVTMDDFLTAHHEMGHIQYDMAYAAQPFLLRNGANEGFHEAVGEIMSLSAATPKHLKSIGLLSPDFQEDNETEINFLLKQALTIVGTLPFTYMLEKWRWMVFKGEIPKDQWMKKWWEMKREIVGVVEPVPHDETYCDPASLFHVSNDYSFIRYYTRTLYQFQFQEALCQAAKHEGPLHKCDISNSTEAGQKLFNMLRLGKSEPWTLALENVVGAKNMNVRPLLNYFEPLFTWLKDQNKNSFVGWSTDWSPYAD

Common to all, as to test: flow cytometry on cells; yeast surface display titration: yeast cells displaying the MP incubated with soluble biotinylated hACE2 (100 pM to 3 μM), at least 1 h, room temperature; neutravidin-DyLight 650 detection, binding MFI normalised to display (anti-HA) MFI; one-site fit; apparent KD; n = 3; only the binder purified
Assay [1] has as its target T1, GR1.9 (N8A), yeast-displayed alanine mutant of GR1.4.
T1 sequence (peptide): ACEPLGYALFLCSG

Assay [2] concerns the target T2, GR1.6 (L5A), yeast-displayed alanine mutant of GR1.4.
T2 sequence (peptide): ACEPAGYNLFLCSG

The target in assay [3] is T3, GR1.7 (G6A), yeast-displayed alanine mutant of GR1.4.
T3 sequence (peptide): ACEPLAYNLFLCSG

In assay [4] the target is T4, GR1.8 (Y7A), yeast-displayed alanine mutant of GR1.4.
T4 sequence (peptide): ACEPLGANLFLCSG

Results are given in words; binding and its absence hold for the method and conditions named. Some results given as binding are weak or reduced against the parent protein; the word gives no strength.

On to “human angiotensin-converting enzyme 2, extracellular catalytic domain, produced in mammalian cells (glycosylated), biotinylated (from UniProt Q9BYF1 19-615)”, for which the binding entry is on record as “binds” in assay [1], “no binding (tested: up to 3 μM hACE2)” in assay [2], “no binding (tested: up to 3 μM hACE2)” in assay [3] and “no binding (tested: up to 3 μM hACE2)” in assay [4].
